Laboratory results taken from paper PMC5766103 (PLoS ONE, 2018).
These are yes or no findings as the source states them, for the method shown. Some results given as binding are weak or reduced against the parent protein; the word gives no strength. Tags and fused reporters may be left off the sequences shown.

Experiments:
Test in all cases: ELISA; receptor-Fc coated on the plate (IL-17RA-Fc 2 ug/mL, the others 1 ug/mL in PBS); biotinylated cytokine (IL-17A 250 ng/mL; IL-17C, IL-17E, IL-17F 100 ng/mL) pre-incubated 1 h with peptide (0.128 nM to 10,000 nM), then 30 min at RT on the plate; streptavidin-HRP; percent inhibition; both purified
IL-17RE-Fc = biological target: T1, IL-17RE-Fc (UniProt Q8NFR9)
T1 sequence: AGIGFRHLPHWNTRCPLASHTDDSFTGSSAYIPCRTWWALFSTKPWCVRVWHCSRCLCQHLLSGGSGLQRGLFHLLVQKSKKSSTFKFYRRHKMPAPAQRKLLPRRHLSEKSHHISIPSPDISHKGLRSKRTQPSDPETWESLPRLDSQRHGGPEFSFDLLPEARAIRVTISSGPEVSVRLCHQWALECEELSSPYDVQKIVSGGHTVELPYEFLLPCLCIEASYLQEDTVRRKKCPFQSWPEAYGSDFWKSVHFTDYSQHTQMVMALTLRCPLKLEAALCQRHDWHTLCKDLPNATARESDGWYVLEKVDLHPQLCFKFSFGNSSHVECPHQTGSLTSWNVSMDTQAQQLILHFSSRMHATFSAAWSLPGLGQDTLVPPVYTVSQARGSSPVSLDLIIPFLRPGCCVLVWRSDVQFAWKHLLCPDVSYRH

IL-17RB-Fc = biological target: T2, IL-17RB-Fc (UniProt Q9NRM6)
T2 sequence: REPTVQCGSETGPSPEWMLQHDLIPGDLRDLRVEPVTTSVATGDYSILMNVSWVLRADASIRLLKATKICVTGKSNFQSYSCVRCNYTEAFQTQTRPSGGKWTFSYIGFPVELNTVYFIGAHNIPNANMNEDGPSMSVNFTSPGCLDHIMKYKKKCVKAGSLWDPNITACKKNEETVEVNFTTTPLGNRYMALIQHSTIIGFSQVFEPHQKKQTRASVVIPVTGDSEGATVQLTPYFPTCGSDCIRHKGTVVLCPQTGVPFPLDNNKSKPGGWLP

IL-17RC-Fc = biological target: T3, IL-17RC-Fc (UniProt Q8NAC3)
T3 sequence: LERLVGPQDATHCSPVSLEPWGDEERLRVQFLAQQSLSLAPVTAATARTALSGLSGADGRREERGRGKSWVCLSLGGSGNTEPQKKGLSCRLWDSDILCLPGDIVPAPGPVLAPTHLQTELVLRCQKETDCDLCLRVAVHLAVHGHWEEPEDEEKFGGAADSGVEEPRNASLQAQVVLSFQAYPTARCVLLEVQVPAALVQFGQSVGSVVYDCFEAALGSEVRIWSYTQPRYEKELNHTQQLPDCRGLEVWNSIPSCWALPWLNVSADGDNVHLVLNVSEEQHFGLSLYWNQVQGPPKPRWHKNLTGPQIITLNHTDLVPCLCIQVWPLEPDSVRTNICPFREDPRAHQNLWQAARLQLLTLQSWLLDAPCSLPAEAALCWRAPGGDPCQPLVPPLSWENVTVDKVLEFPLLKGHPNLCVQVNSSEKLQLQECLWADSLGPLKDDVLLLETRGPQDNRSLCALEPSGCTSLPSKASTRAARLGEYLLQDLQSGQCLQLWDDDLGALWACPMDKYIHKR

B1: human IL-17C (#1234-IL; R&D Systems) (ligand, UniProt Q9P0M4 19-197)
chain: HHDPSLRGHPHSHGTPHCYSAEELPLGQAPPHLLARGAKWGQALPVALVSSLEAASHRGRHERPSATTQCPVLRPEEVLEADTHQRSISPWRYRVDTDEDRYPQKLAFAECLCRGCIDARTGRETAALNSVRLLQSLLVLRRRPCSRDGSGLPTPGAFAFHTEFIHVPVGCTCVLPRSV
modifications: biotin (EZ Link NHS-Biotin)
**Q.** For B1, which binding (IL-17RE-Fc) is on record?
**A.** binds

B2: human IL-17E (#1258-IL; R&D Systems) (ligand, UniProt Q9H293 33-177)
chain: YSHWPSCCPSKGQDTSEELLRWSTVPVPPLEPARPNRHPESCRASEDGPLNSRAISPWRYELDRDLNRLPQDLYHARCLCPHCVSLQTGSHMDPRGNSELLYHNQTVFYRRPCHGEKGTHKGYCLERRLYRVSLACVCVRPRVMG
modifications: biotin (EZ Link NHS-Biotin)
**Q.** B2 was tested. Which binding (IL-17RB-Fc) did it give?
**A.** binds

B3: human IL-17F (#1335-IL; R&D Systems) (ligand, UniProt Q96PD4 31-163)
chain: RKIPKVGHTFFQKPESCPPVPGGSMKLDIGIINENQRVSMSRNIESRSTSPWNYTVTWDPNRYPSEVVQAQCRNLGCINAQGKEDISMNSVPIQQETLVVRRKHQGCSVSFQLEKVLVTVGCTCVTPVIHHVQ
modifications: biotin (EZ Link NHS-Biotin)
**Q.** With B3 as the binder, how does the binding (IL-17RC-Fc) read?
**A.** binds
